The text below walks through data of patent US4517180A (Amano Pharmaceutical Co., Ltd, priority 1982, dated 1985).

Some peptides are written in HELM: one residue between dots, names in brackets for other building blocks, links after the first $. *1 amine or outer side, *2 acyl side, *3 side chain or, on linkers, in order; H or OH if unused. [ ]: non-standard residue; d: D form. The star is where a group is joined. NMeF = CN[C@@H](Cc1ccccc1)C(=O)O; Suc = O=C(CCC(=O)[*:2])[*:1]; Boc = CC(C)(C)OC(=O)*

The nature of the first data set: general procedure: solution-phase peptide synthesis; azide process (isoamyl nitrite); OSu active esters; acid anhydrides. The note with it: coupling step.
Boc--Trp--Met--Asp--MePhe--NH2 registered a step yield of 65.6%.

Turning to Boc-MGWMD[NMeF]-NH2, the step yield is recorded as 63.5%.

For the substance Boc-YMGWMDF-NH2, the step yield was determined as 70.8%.

In turn, Boc-YMGWMD[NMeF]-NH2 yielded a step yield of 85.5%.

Turning to “pGlu--Asp--Tyr--Met--Gly-- Trp--Met--Asp--Phe--NH2”, the step yield worked out at 70.9%.

The same data set, now with this note: late stage modification step.
In turn, “Glt--Asp--Tyr--Met--Gly--Trp--Met--Asp--Phe--NH2” came in with a step yield of 94.6%.

Substance “Glt--Tyr--Met--Gly--Trp--Met--Asp--Phe--NH2” gave a step yield of 72.0%.

For “PEPTIDE1{[Glt].D.[Tyr(SO3H)].M.G.W.M.D.F.[am]}$$$$V2.0”, the step yield is reported as 66.4%.

In turn, “PEPTIDE1{[Glt].[Tyr(SO3H)].M.G.W.M.D.F.[am]}$$$$V2.0” yielded a step yield of 65.9%.

Take “PEPTIDE1{[Suc].[Tyr(SO3H)].M.G.W.M.D.F.[am]}$$$$V2.0”: the step yield came to 75.3%.

Regarding “PEPTIDE1{[Suc].[Tyr(SO3H)].M.G.W.M.D.[MePhe].[am]}$$$$V2.0”, the step yield amounted to 65.5%.

“PEPTIDE1{[pGlu].D.[Tyr(SO3H)].M.G.W.M.D.F.[am]}$$$$V2.0”: the step yield was found to be 66.0%.

“Pht--Tyr(SO3 H)--Met--Gly--Trp--Met--Asp--Phe--NH2”: the step yield is 57.1%.

“Pht--Tyr--Met--Gly--Trp--Met--Asp--Phe--NH2” yielded a step yield of 71.6%.

For Suc-YMGWMD[NMeF]-NH2, the step yield is on record as 70.8%.
